Consider 17 compounds from the supplement of paper PMC4604168 (melanoma cell lines).

The list shows a part of the results. Repeats are few or missing, and single values can be far off.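 The apoptosis fraction was the count of cleaved-PARP antibody-stained nuclei relative to all DNA-stained nuclei, imaged in 1,536-well plates. Screening doses were set so most cells survived, and baseline and induced cleaved-PARP levels vary greatly across cell lines.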

Test systems include WM115; WM1716; WM1745; WM3526; WM3619; WM451Lu.
Assay in all cases: cleaved PARP positive nuclei fraction relative to DMSO control; melanoma cells; higher = more apoptosis
Conditions in all cases: library dose: low library concentration; 72 h

As for `CC(C)(C)c1cnc(CSc2cnc(NC(=O)C3CCNCC3)s2)o1` + CCc1ccc(CCOc2ccc(CC3SC(=O)NC3=O)cc2)nc1 [pioglitazone] (first compound 0.01 µM, partner dose 2 µM), the “cleaved PARP positive nuclei fraction” value came to 47.9% in the experiment with WM115; 139% in the experiment on WM1716; 106% in the experiment with WM1745; 74.2% in the experiment with WM3526; 69.8% in the experiment with WM3619; 63.9% in the experiment on WM451Lu.
In the case of `Clc1ccc(Nc2nnc(Cc3ccncc3)c3ccccc23)cc1` [vatalanib] + COc1cc(Nc2ncc(F)c(Nc3ccc4c(n3)NC(=O)C(C)(C)O4)n2)cc(OC)c1OC [Tamatinib] (first compound 2 µM, partner dose 0.4 µM), the “cleaved PARP positive nuclei fraction” value turned out to be 140% in the experiment on WM115; 135% with WM1716; 141% with WM1745; 159% with WM3526; 109% in the experiment with WM3619; 98.7% with WM451Lu.
Take `CO[C@@H]1[C@H](N(C)C(=O)c2ccccc2)C[C@H]2O[C@]1(C)n1c3ccccc3c3c4c(c5c6ccccc6n2c5c31)C(=O)NC4` [Midostaurin] + c1cc(-c2cnn3cc(-c4ccc(OCCN5CCCCC5)cc4)cnc23)ccn1 [Dorsomorphin] (first compound 0.08 µM, partner dose 0.4 µM): the “cleaved PARP positive nuclei fraction” value with WM115 worked out at 19.6%; in the experiment on WM1716, 59.9%; with WM1745, 118%; in the experiment with WM3526 it was 60.4%; with WM3619 it was 81.9%; with WM451Lu it was 90.7%.
Consider `Cn1c(Nc2ccc(C(F)(F)F)cc2)nc2cc(Oc3ccnc(-c4ncc(C(F)(F)F)[nH]4)c3)ccc21` + O=C1NC(=O)/C(=C/c2ccc(-c3ccc(F)cc3O)o2)S1 [AS252424] (first compound 0.08 µM, partner dose 1 µM), for which the “cleaved PARP positive nuclei fraction” value stood at 430% with WM115; 151% in the experiment with WM1716; 203% in the experiment on WM1745; 89.5% in the experiment on WM3526; 206% in the experiment with WM3619; 86.3% with WM451Lu.
Turning to `COCC[n+]1c2c(n(Cc3cnccn3)c1C)C(=O)c1ccccc1C2=O` + COc1cc(N2CCC(N3CCN(C)CC3)CC2)ccc1Nc1ncc(Cl)c(Nc2ccccc2S(=O)(=O)C(C)C)n1 [NVP-TAE684] (first compound 0.0004 µM, partner dose 0.08 µM), the “cleaved PARP positive nuclei fraction” value stood at 121% in the experiment on WM115; 123% in the experiment on WM1716; 94.2% in the experiment on WM1745; 38.4% in the experiment with WM3526; 83.1% in the experiment on WM3619; 194% in the experiment on WM451Lu.
With `CC1(C)NC(=O)N(c2ccc([N+](=O)[O-])c(C(F)(F)F)c2)C1=O` [nilutamide] + C[C@@H]1CCN(C(=O)CC#N)C[C@@H]1N(C)c1ncnc2[nH]ccc12 [CP690550] (first compound 1 µM, partner dose 1 µM), the “cleaved PARP positive nuclei fraction” value came to 97.8% with WM115; 52.2% in the experiment with WM1716; 96.8% in the experiment on WM1745; 32.8% in the experiment with WM3526; 84.5% in the experiment on WM3619; 878% in the experiment with WM451Lu.
`O=C(Nc1cccc(Cl)c1)Nc1ncc(CCNc2ncnc3ccsc23)s1` + Cn1cncc1[C@@](N)(c1ccc(Cl)cc1)c1ccc2c(c1)c(-c1cccc(Cl)c1)cc(=O)n2C [tipifarnib] (first compound 0.0008 µM, partner dose 0.01 µM): the “cleaved PARP positive nuclei fraction” value in the experiment with WM115 is 108%; in the experiment with WM1716 it was 111%; in the experiment with WM1745 it was 115%; with WM3526 it was 71.9%; with WM3619 it was 102%; in the experiment with WM451Lu it was 69.2%.
For `Cc1ccc(NC(=O)c2cccc(N(C)C)c2)cc1NC(=O)c1ccc(O)cc1` + O=S(=O)(c1ccccc1)N(CC(F)(F)F)c1ccc(C(O)(C(F)(F)F)C(F)(F)F)cc1 [T0901317] (first compound 2 µM, partner dose 1.4 µM), the “cleaved PARP positive nuclei fraction” value with WM115 is 47.5%; in the experiment with WM1716, 89.3%; in the experiment on WM1745, 130%; in the experiment with WM3526 it was 75.9%; with WM3619, 184%; in the experiment on WM451Lu, 68.7%.
As to `O=C(CCCCCCC(=O)Nc1ccccc1)NO` [vorinostat] + COc1cc2c(Oc3ccc4[nH]c(C)cc4c3F)ncnc2cc1OCCCN1CCCC1 [cediranib] (first compound 0.08 µM, partner dose 0.4 µM), the “cleaved PARP positive nuclei fraction” value with WM115 was found to be 65.2%; with WM1716 it was 118%; with WM1745 it was 83.8%; in the experiment with WM3526, 121%; with WM3619, 95.7%; in the experiment on WM451Lu it was 87.1%.
For the compound `Cc1cc(N2CCOCC2)cc2[nH]c(-c3c(NC[C@@H](O)c4cccc(Cl)c4)cc[nH]c3=O)nc12` + c1cc(-c2cnn3cc(-c4ccc(OCCN5CCCCC5)cc4)cnc23)ccn1 [Dorsomorphin] (first compound 0.2 µM, partner dose 0.4 µM), the “cleaved PARP positive nuclei fraction” value was found to be 32.7% in the experiment on WM115; 54.4% with WM1716; 155% in the experiment on WM1745; 39.4% with WM3526; 117% in the experiment on WM3619; 194% in the experiment with WM451Lu.
As to `O=C(Nc1cccc(Cl)c1)Nc1ncc(CCNc2ncnc3ccsc23)s1` + N#Cc1c(O)c2c(-c3ccc(-c4ccccc4O)cc3)csc2[nH]c1=O [A769662] (first compound 0.0008 µM, partner dose 2 µM), the “cleaved PARP positive nuclei fraction” value with WM115 turned out to be 141%; with WM1716 it was 107%; in the experiment with WM1745, 102%; in the experiment on WM3526, 66%; in the experiment with WM3619, 84.2%; with WM451Lu, 74.4%.
`O=C(CCCCCCC(=O)Nc1ccccc1)NO` [vorinostat] + CCN(CC)CCCCNc1ncc2cc(-c3cc(OC)cc(OC)c3)c(NC(=O)NC(C)(C)C)nc2n1 [PD173074] (first compound 0.08 µM, partner dose 0.1 µM): the “cleaved PARP positive nuclei fraction” value in the experiment with WM115 came to 115%; with WM1716 it was 85.4%; with WM1745 it was 96.1%; in the experiment on WM3526, 134%; in the experiment on WM3619, 193%; with WM451Lu, 214%.
`C=CCn1c(=O)c2cnc(Nc3ccc(N4CCN(C)CC4)cc3)nc2n1-c1cccc(C(C)(C)O)n1` + Oc1cc(-c2nc(-c3ccccc3)[nH]c2-c2ccncc2)ccc1Cl [L779450] (first compound 0.02 µM, partner dose 0.2 µM): the “cleaved PARP positive nuclei fraction” value with WM115 was 90.5%; in the experiment with WM1716, 121%; in the experiment with WM1745, 127%; with WM3526, 98.5%; with WM3619 it was 127%; in the experiment with WM451Lu it was 126%.
For the compound `NC(=O)Nc1cc(-c2cccc(F)c2)sc1C(=O)N[C@H]1CCCNC1` + Oc1nc(-c2ccc(C(F)(F)F)cc2)nc2c1CSCC2 [XAV939] (first compound 0.02 µM, partner dose 2 µM), the “cleaved PARP positive nuclei fraction” value in the experiment with WM115 was found to be 123%; in the experiment on WM1716, 109%; with WM1745, 192%; in the experiment with WM3526 it was 367%; in the experiment on WM3619 it was 184%; in the experiment on WM451Lu, 87.5%.
For `C[C@]1(c2nc3c(C(N)=O)cccc3[nH]2)CCCN1` [Veliparib] + O=C(Nc1cccc(Cl)c1)Nc1ncc(CCNc2ncnc3ccsc23)s1 [SNS314] (first compound 1.4 µM, partner dose 0.0008 µM), the “cleaved PARP positive nuclei fraction” value in the experiment with WM115 stood at 209%; with WM1716, 42%; with WM1745, 109%; with WM3526 it was 162%; in the experiment with WM3619, 101%; in the experiment with WM451Lu, 268%.
For the compound `COc1cc(Nc2ncc(F)c(Nc3ccc4c(n3)NC(=O)C(C)(C)O4)n2)cc(OC)c1OC` [Tamatinib] + C[C@@H]1CCN(C(=O)CC#N)C[C@@H]1N(C)c1ncnc2[nH]ccc12 [CP690550] (first compound 0.4 µM, partner dose 1 µM), the “cleaved PARP positive nuclei fraction” value was determined as 190% with WM115; 119% with WM1716; 125% with WM1745; 66.4% in the experiment on WM3526; 187% in the experiment on WM3619; 50.9% in the experiment on WM451Lu.
As for `COc1cc(Nc2ncc(F)c(Nc3ccc4c(n3)NC(=O)C(C)(C)O4)n2)cc(OC)c1OC` [Tamatinib] + O=C1NC(=O)/C(=C/c2ccc(-c3ccc(F)cc3O)o2)S1 [AS252424] (first compound 0.4 µM, partner dose 1 µM), the “cleaved PARP positive nuclei fraction” value came to 78.4% in the experiment on WM115; 136% in the experiment with WM1716; 140% with WM1745; 95% in the experiment on WM3526; 77.5% in the experiment on WM3619; 66% in the experiment with WM451Lu.
